The other results are listed elsewhere or left out. Single values are uncertain, as repeats are few or missing.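 Cells were imaged in 1,536-well plates, and nuclei stained with an antibody against cleaved PARP were counted against all DNA-stained nuclei to give the apoptosis fraction. Screening doses were chosen to leave most cells alive, and resting and induced cleaved-PARP levels differ strongly between cell lines.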
Experiments:
Assay in all cases: cleaved PARP positive nuclei fraction relative to DMSO control; melanoma cells; higher = more apoptosis
Details in all cases: library dose: low library concentration; 72 h
MZ2-MEL = system: MZ2-MEL
MeWo = system: MeWo
RPMI7951 = system: RPMI7951
RVH-421 = system: RVH-421
SkMel28 = system: SkMel28
SkMel2 = system: SkMel2
SkMel30 = system: SkMel30
UACC62 = system: UACC62
WM115 = system: WM115
WM1716 = system: WM1716
WM1745 = system: WM1745
WM3526 = system: WM3526
WM3619 = system: WM3619
WM451Lu = system: WM451Lu

Compound	cleaved PARP positive nuclei fraction (MZ2-MEL) [%]	cleaved PARP positive nuclei fraction (MeWo) [%]	cleaved PARP positive nuclei fraction (RPMI7951) [%]	cleaved PARP positive nuclei fraction (RVH-421) [%]	cleaved PARP positive nuclei fraction (SkMel28) [%]	cleaved PARP positive nuclei fraction (SkMel2) [%]	cleaved PARP positive nuclei fraction (SkMel30) [%]	cleaved PARP positive nuclei fraction (UACC62) [%]	cleaved PARP positive nuclei fraction (WM115) [%]	cleaved PARP positive nuclei fraction (WM1716) [%]	cleaved PARP positive nuclei fraction (WM1745) [%]	cleaved PARP positive nuclei fraction (WM3526) [%]	cleaved PARP positive nuclei fraction (WM3619) [%]	cleaved PARP positive nuclei fraction (WM451Lu) [%]
C[C@@H](N)c1ccc(C(=O)Nc2ccnc3[nH]ccc23)cc1 + CS(=O)(=O)CCNCc1ccc(-c2ccc3ncnc(Nc4ccc(OCc5cccc(F)c5)c(Cl)c4)c3c2)o1 [lapatinib] (first compound 0.4 µM, partner dose 0.8 µM)	172	330	40.8	184	105	119	86.3	254	78.2	97.5	145	122	150	49.2
CCN(CC)CCNC(=O)c1c(C)[nH]c(/C=C2\C(=O)Nc3ccc(F)cc32)c1C [sunitinib] + COc1ccc(Cl)c(Nc2nc3ccccc3nc2NS(=O)(=O)c2cccc(NC(=O)C(C)(C)N)c2)c1 [XL147] (first compound 0.4 µM, partner dose 0.8 µM)	56	151	94.8	155	84.6	25.3	108	187	32.9	37.6	126	198	87.8	183
C[C@]1(O)C[C@@H](c2nc(-c3ccc4ccc(-c5ccccc5)nc4c3)c3c(N)nccn32)C1 + CC(=O)O[C@@]12CO[C@@H]1C[C@H](O)[C@@]1(C)C(=O)[C@H](O)C3=C(C)[C@@H](OC(=O)[C@H](O)[C@@H](NC(=O)OC(C)(C)C)c4ccccc4)C[C@@](O)([C@@H](OC(=O)c4ccccc4)[C@H]21)C3(C)C [Docetaxel] (first compound 0.4 µM, partner dose 0.0001 µM)	435	237	468	77.2	133	733	436	698	364	328	245	438	137	70.1
C[C@@H](N)c1ccc(C(=O)Nc2ccnc3[nH]ccc23)cc1 + OCc1c[nH]c2ccccc12 [Indole-3-carbinol] (first compound 0.4 µM, partner dose 0.8 µM)	88.6	352	67.9	202	66.5	183	75.1	128	233	113	141	43.3	99.6	55.4
NC1(c2ccc(-c3nc4ccn5c(=O)[nH]nc5c4cc3-c3ccccc3)cc2)CCC1 + C[C@]1(c2nc3c(C(N)=O)cccc3[nH]2)CCCN1 [Veliparib] (first compound 0.4 µM, partner dose 1.4 µM)	28.7	164	215	108	154	41.1	91	54.9	278	104	105	111	101	178
NC1(c2ccc(-c3nc4ccn5c(=O)[nH]nc5c4cc3-c3ccccc3)cc2)CCC1 + Clc1ccc(Nc2nnc(Cc3ccncc3)c3ccccc23)cc1 [vatalanib] (first compound 0.4 µM, partner dose 2 µM)	70.3	132	124	186	99.9	98	127	130	289	77.3	111	83.1	131	113
C[C@@H](N)c1ccc(C(=O)Nc2ccnc3[nH]ccc23)cc1 + CC(=O)c1c(C)c2cnc(Nc3ccc(N4CCNCC4)cn3)nc2n(C2CCCC2)c1=O [palbociclib] (first compound 0.4 µM, partner dose 0.04 µM)	112	161	53.6	348	133	65.1	45.2	98	86.3	155	123	116	149	62.1
CCN(CC)CCNC(=O)c1c(C)[nH]c(/C=C2\C(=O)Nc3ccc(F)cc32)c1C [sunitinib] + C[C@]1(c2nc3c(C(N)=O)cccc3[nH]2)CCCN1 [Veliparib] (first compound 0.4 µM, partner dose 1.4 µM)	113	82.1	68.3	75.4	94.8	43.9	73.4	78.1	132	54.9	112	118	68.3	51.8
CC1(C)CCC(c2ccc(Cl)cc2)=C(CN2CCN(c3ccc(C(=O)NS(=O)(=O)c4ccc(N[C@H](CCN5CCOCC5)CSc5ccccc5)c(S(=O)(=O)C(F)(F)F)c4)cc3)CC2)C1 + C[C@]1(c2nc3c(C(N)=O)cccc3[nH]2)CCCN1 [Veliparib] (first compound 0.4 µM, partner dose 1.4 µM)	323	378	203	329	95.5	266	250	97.9	773	133	1300	54.2	139	55.1
CC(=O)O[C@@]12CO[C@@H]1C[C@H](O)[C@@]1(C)C(=O)[C@H](O)C3=C(C)[C@@H](OC(=O)[C@H](O)[C@@H](NC(=O)OC(C)(C)C)c4ccccc4)C[C@@](O)([C@@H](OC(=O)c4ccccc4)[C@H]21)C3(C)C [Docetaxel] + CC(=O)c1c(C)c2cnc(Nc3ccc(N4CCNCC4)cn3)nc2n(C2CCCC2)c1=O [palbociclib] (first compound 0.0001 µM, partner dose 0.04 µM)	463	421	126	382	196	311	211	465	250	168	197	194	149	158
C[C@]1(O)C[C@@H](c2nc(-c3ccc4ccc(-c5ccccc5)nc4c3)c3c(N)nccn32)C1 + COCC[n+]1c2c(n(Cc3cnccn3)c1C)C(=O)c1ccccc1C2=O [YM155] (first compound 0.4 µM, partner dose 0.0004 µM)	95.8	93.9	170	83.3	80.4	36.9	141	147	89.4	64.7	146	176	90.3	125
Cn1sc(=O)n(Cc2ccccc2)c1=O + CC(C)C[C@H](NC(=O)[C@H](Cc1ccccc1)NC(=O)c1cnccn1)B(O)O [Bortezomib] (first compound 0.4 µM, partner dose 0.001 µM)	29.8	97.2	114	90.9	127	67.3	97.2	56.7	117	73.8	93.1	239	107	54.1
Cn1cnc2c(F)c(Nc3ccc(Br)cc3Cl)c(C(=O)NOCCO)cc21 [selumetinib] + CC(=O)O[C@@]12CO[C@@H]1C[C@H](O)[C@@]1(C)C(=O)[C@H](O)C3=C(C)[C@@H](OC(=O)[C@H](O)[C@@H](NC(=O)OC(C)(C)C)c4ccccc4)C[C@@](O)([C@@H](OC(=O)c4ccccc4)[C@H]21)C3(C)C [Docetaxel] (first compound 0.015 µM, partner dose 0.0001 µM)	500	465	273	227	260	313	130	398	179	66.4	28.5	817	170	258
Cn1cnc2c(F)c(Nc3ccc(Br)cc3Cl)c(C(=O)NOCCO)cc21 [selumetinib] + CC(=O)c1c(C)c2cnc(Nc3ccc(N4CCNCC4)cn3)nc2n(C2CCCC2)c1=O [palbociclib] (first compound 0.015 µM, partner dose 0.04 µM)	211	42.8	113	144	159	93	238	324	91.5	383	129	179	105	56.8
CCN(CC)CCNC(=O)c1c(C)[nH]c(/C=C2\C(=O)Nc3ccc(F)cc32)c1C [sunitinib] + CCCS(=O)(=O)Nc1ccc(F)c(C(=O)c2c[nH]c3ncc(Cl)cc23)c1F [PLX4720] (first compound 0.4 µM, partner dose 0.08 µM)	35.8	40.8	48.2	137	92.5	66.3	256	466	147	60.8	115	63.5	114	92
Cn1sc(=O)n(Cc2ccccc2)c1=O + C[C@]1(c2nc3c(C(N)=O)cccc3[nH]2)CCCN1 [Veliparib] (first compound 0.4 µM, partner dose 1.4 µM)	40.4	138	54.2	88.6	89.7	106	144	52.5	82.4	72	109	83.6	67.5	131
CC(=O)O[C@@]12CO[C@@H]1C[C@H](O)[C@@]1(C)C(=O)[C@H](O)C3=C(C)[C@@H](OC(=O)[C@H](O)[C@@H](NC(=O)OC(C)(C)C)c4ccccc4)C[C@@](O)([C@@H](OC(=O)c4ccccc4)[C@H]21)C3(C)C [Docetaxel] + C=CCNC1=C2C[C@@H](C)C[C@H](OC)[C@H](O)[C@@H](C)/C=C(\C)[C@H](OC(N)=O)[C@@H](OC)/C=C\C=C(/C)C(=O)NC(=CC1=O)C2=O [Tanespimycin] (first compound 0.0001 µM, partner dose 0.002 µM)	950	453	538	72.2	207	1070	428	598	337	228	151	499	142	219
C[C@]1(O)C[C@@H](c2nc(-c3ccc4ccc(-c5ccccc5)nc4c3)c3c(N)nccn32)C1 + CCN(CC)CCNC(=O)c1c(C)[nH]c(/C=C2\C(=O)Nc3ccc(F)cc32)c1C [sunitinib] (first compound 0.4 µM, partner dose 0.4 µM)	199	44.4	85.8	84.7	180	98.2	79.7	136	62.7	56.3	139	173	109	108

Some of the entries above, reformatted:
Compound,cleaved PARP positive nuclei fraction (MZ2-MEL) [%],cleaved PARP positive nuclei fraction (MeWo) [%],cleaved PARP positive nuclei fraction (RPMI7951) [%],cleaved PARP positive nuclei fraction (RVH-421) [%],cleaved PARP positive nuclei fraction (SkMel28) [%],cleaved PARP positive nuclei fraction (SkMel2) [%],cleaved PARP positive nuclei fraction (SkMel30) [%],cleaved PARP positive nuclei fraction (UACC62) [%],cleaved PARP positive nuclei fraction (WM115) [%],cleaved PARP positive nuclei fraction (WM1716) [%],cleaved PARP positive nuclei fraction (WM1745) [%],cleaved PARP positive nuclei fraction (WM3526) [%],cleaved PARP positive nuclei fraction (WM3619) [%],cleaved PARP positive nuclei fraction (WM451Lu) [%]
"CCN(CC)CCNC(=O)c1c(C)[nH]c(/C=C2\C(=O)Nc3ccc(F)cc32)c1C [sunitinib] + CCCS(=O)(=O)Nc1ccc(F)c(C(=O)c2c[nH]c3ncc(Cl)cc23)c1F [PLX4720] (first compound 0.4 µM, partner dose 0.08 µM)",35.8,40.8,48.2,137,92.5,66.3,256,466,147,60.8,115,63.5,114,92
"Cn1sc(=O)n(Cc2ccccc2)c1=O + C[C@]1(c2nc3c(C(N)=O)cccc3[nH]2)CCCN1 [Veliparib] (first compound 0.4 µM, partner dose 1.4 µM)",40.4,138,54.2,88.6,89.7,106,144,52.5,82.4,72,109,83.6,67.5,131
